The other results are listed elsewhere or left out.
Key:
Experiment in all cases: log2 fold change, soluble protein after heating vs DMSO (PISA); higher = thermal stabilisation; K562 lysate, 10 uM; active = over 0.2 and 3.5 SD of the protein, either way, in both replicates (recomputed)
[1] = compound: CN1CC[C@H](c2c(O)cc(O)c3c(=O)cc(-c4ccccc4Cl)oc23)[C@H](O)C1 [alvocidib]
In short: (§1)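 Quantification was by TMTpro 16plex LC-MS/MS with equalised channel sums, applied to the supernatant after 21,000xg for 90 min. Samples were crude K562 extract at 1 mg/mL protein in PBS pH 7.4 with 1 mM MgCl2, treated with 10 μM compound for 30 min, heated for 3 min across 48°C-58°C, pooled and brought to 0.5% NP-40 at 4°C. Values are log-two fold changes in thermal stability relative to solvent controls, from duplicates.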

Chains of the proteins cited; added tags and fusions are not shown. Lines headed by an entry give the natural chain unless they say otherwise; changes in a name come on top.
UniProt P30046: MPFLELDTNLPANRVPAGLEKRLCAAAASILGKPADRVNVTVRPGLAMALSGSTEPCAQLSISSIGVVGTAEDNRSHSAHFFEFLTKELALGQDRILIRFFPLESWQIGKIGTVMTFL
UniProt Q8N465: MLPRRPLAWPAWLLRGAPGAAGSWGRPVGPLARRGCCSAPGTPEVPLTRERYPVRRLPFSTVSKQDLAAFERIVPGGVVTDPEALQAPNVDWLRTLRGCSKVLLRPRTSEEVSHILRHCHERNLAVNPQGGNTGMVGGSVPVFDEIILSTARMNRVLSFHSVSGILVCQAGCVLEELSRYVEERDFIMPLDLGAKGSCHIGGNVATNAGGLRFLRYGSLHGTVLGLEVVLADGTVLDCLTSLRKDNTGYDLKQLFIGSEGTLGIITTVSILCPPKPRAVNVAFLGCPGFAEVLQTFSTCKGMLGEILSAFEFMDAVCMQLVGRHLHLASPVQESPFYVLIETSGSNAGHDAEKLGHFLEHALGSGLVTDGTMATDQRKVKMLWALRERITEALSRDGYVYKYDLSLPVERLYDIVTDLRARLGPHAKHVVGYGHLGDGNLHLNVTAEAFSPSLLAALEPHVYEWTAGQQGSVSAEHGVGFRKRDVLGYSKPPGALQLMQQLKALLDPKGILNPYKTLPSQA
UniProt Q9Y4B6: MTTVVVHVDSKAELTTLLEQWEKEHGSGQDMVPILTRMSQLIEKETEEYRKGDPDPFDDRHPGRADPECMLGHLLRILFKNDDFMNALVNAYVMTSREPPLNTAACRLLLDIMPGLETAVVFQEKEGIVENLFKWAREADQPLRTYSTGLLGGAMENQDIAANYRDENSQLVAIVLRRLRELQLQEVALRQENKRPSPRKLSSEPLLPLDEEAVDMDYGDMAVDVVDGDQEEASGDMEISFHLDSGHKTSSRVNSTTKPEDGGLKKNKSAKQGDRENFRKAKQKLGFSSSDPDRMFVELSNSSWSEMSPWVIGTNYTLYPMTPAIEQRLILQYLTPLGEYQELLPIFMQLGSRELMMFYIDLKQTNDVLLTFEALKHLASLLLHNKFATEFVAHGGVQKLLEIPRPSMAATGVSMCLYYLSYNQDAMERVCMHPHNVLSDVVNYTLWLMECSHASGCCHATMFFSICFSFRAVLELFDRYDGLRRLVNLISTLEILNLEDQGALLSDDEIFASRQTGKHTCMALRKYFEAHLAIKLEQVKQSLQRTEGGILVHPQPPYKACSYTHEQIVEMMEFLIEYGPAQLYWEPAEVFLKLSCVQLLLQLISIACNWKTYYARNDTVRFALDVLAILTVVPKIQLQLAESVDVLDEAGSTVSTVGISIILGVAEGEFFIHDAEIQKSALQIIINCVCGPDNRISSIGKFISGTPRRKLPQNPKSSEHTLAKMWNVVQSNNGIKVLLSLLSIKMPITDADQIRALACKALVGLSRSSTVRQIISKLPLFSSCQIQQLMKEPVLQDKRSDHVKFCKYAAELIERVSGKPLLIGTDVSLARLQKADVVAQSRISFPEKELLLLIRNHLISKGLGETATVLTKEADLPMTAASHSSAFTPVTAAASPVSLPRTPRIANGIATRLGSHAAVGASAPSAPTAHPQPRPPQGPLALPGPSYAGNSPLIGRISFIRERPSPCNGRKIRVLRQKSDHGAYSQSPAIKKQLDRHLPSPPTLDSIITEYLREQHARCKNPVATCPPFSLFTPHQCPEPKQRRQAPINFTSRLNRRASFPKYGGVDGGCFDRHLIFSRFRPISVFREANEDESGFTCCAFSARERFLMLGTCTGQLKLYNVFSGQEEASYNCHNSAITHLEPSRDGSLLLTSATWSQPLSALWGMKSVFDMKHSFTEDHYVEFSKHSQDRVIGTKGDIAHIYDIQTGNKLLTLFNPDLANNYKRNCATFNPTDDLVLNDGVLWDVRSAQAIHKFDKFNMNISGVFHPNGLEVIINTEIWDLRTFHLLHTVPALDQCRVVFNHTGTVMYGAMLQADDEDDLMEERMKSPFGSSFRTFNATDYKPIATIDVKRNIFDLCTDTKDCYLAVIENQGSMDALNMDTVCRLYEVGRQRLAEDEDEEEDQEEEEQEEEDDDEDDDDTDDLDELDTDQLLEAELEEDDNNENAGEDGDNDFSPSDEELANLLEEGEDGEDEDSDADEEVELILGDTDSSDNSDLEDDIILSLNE
UniProt Q14118: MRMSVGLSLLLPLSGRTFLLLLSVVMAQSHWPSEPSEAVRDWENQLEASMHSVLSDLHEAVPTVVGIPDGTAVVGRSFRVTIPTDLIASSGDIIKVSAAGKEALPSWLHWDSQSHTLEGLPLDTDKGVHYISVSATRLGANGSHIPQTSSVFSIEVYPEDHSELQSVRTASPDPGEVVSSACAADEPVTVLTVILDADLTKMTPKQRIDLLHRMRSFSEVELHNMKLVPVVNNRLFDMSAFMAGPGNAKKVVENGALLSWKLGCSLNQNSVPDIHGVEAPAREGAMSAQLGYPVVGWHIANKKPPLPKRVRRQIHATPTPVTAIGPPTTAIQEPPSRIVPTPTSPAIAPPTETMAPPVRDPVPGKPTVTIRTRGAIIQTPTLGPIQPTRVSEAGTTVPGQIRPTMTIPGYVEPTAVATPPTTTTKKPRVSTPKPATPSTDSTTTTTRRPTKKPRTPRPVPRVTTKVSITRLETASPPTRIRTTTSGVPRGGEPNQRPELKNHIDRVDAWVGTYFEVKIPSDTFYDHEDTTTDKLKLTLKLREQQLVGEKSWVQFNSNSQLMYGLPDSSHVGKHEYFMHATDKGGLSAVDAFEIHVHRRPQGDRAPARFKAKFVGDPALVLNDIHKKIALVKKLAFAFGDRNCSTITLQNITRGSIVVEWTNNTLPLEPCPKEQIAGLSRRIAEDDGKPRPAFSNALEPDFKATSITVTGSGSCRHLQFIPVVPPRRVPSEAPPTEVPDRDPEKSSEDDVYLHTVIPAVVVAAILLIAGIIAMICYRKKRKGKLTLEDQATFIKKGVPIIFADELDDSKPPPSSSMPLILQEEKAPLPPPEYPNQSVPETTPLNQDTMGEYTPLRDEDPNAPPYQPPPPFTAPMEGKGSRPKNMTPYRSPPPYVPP
UniProt Q8TEB1, whole entry, looked up: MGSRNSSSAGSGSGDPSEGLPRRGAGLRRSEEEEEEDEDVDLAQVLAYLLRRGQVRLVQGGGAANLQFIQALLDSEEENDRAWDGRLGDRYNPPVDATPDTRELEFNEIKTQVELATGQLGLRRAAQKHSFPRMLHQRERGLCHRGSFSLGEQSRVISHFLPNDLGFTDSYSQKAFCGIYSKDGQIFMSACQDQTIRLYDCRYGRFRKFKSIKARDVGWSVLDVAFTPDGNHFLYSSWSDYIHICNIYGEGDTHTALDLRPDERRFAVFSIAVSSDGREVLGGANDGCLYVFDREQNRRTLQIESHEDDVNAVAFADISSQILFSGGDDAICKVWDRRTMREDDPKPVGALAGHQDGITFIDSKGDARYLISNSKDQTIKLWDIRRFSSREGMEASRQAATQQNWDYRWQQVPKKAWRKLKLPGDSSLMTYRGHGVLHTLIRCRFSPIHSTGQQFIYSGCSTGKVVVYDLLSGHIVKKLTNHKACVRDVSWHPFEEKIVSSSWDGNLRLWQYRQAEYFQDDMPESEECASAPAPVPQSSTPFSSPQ
UniProt O15121: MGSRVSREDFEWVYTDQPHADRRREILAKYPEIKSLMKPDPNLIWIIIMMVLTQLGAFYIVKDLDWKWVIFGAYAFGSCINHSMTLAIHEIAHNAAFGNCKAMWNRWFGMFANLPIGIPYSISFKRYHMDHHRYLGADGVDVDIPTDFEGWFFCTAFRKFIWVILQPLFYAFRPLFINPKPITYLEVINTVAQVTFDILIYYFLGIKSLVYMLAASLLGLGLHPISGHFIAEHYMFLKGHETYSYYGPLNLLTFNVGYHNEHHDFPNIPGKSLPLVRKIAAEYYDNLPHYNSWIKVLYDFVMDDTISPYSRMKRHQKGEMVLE
UniProt Q9NUI1: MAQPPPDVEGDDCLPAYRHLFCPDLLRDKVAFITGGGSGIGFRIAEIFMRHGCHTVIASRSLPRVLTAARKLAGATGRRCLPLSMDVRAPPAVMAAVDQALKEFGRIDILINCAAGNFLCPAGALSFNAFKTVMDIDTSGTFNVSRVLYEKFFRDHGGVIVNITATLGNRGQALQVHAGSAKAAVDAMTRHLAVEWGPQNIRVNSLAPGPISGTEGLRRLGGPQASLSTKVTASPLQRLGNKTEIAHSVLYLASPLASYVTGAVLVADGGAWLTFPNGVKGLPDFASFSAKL
UniProt Q8TCE6, whole entry, looked up: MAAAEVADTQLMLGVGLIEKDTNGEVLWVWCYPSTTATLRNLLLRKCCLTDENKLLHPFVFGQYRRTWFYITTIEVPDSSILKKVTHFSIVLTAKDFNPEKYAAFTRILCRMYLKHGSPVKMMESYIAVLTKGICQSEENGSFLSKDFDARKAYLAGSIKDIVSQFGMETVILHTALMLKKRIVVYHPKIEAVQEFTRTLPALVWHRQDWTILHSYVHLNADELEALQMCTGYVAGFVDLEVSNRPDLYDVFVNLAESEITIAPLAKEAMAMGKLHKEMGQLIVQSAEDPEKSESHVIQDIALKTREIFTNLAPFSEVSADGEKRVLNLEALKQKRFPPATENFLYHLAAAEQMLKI

[2] = compound: CN1CCc2c(c3ccccc3n2Cc2ccc(C(=O)NO)cc2)C1 [Tubastatin A]
In short: as §1

[3] = compound: CNC(=O)C1=CC=CC=C1NC2=NC(=NC=C2Cl)NC3=C(C=C(C=C3)N4CCOCC4)OC
In short: as §1

[4] = compound: CNC(=O)c1ccc(Nc2ncc(C(F)(F)F)c(NCc3nccnc3N(C)S(C)(=O)=O)n2)cc1 [defactinib]
In short: as §1

[5] = compound: CNc1nc(-c2ccc3c(N)n[nH]c3c2)cc(N2C[C@@H](C(=O)NC3CCCCC3)CC[C@H]2C)n1
In short: as §1

[6] = compound: COC(=O)N[C@@H](C)CNc1nccc(-c2cn(C(C)C)nc2-c2cc(Cl)cc(NS(C)(=O)=O)c2F)n1 [encorafenib]
In short: as §1

[7] = compound: COC(=O)[C@H](CCSC)NC(=O)C1=C(C=C(C=C1)NC[C@H](CS)N)C2=CC=CC=C2
In short: as §1

[8] = compound: COc1cc(Nc2ncc3c(n2)-c2ccc(Cl)cc2C(c2c(F)cccc2OC)=NC3)ccc1C(=O)O [alisertib]
In short: as §1

[9] = compound: COc1cc2nc(-c3cc(F)ccc3O)nc(N[C@@H]3CNC[C@H]3C(C)(C)O)c2cc1OC
In short: as §1

[10] = compound: COc1cc2ncnc(Nc3ccc(F)c(Cl)c3)c2cc1OCCCN1CCOCC1 [gefitinib]
In short: as §1

[11] = compound: CS(=O)(=O)CCNCc1ccc(-c2ccc3ncnc(Nc4ccc(OCc5cccc(F)c5)c(Cl)c4)c3c2)o1 [lapatinib]
In short: as §1

[12] = compound: CS(=O)(=O)N1CCN(Cc2cc3nc(-c4cccc5[nH]ncc45)nc(N4CCOCC4)c3s2)CC1 [pictilisib]
In short: as §1

[13] = compound: C[C@@H](Oc1cc(-c2cnn(C3CCNCC3)c2)cnc1N)c1c(Cl)ccc(F)c1Cl [crizotinib]
In short: as §1

[14] = compound: C[C@H](C1=CC=C(C=C1)C(=O)NC2=C3C=CNC3=NC=C2)N
In short: as §1

[15] = compound: C[C@H](Nc1ncnc2nc[nH]c12)c1cc2cccc(Cl)c2c(=O)n1-c1ccccc1 [duvelisib]
In short: as §1

[16] = compound: Cc1cc(Nc2cc(CN3CCOCC3)c3nc(C)c(Cc4ccc(Cl)cc4F)n3n2)n[nH]1 [gandotinib]
In short: as §1

[17] = compound: Cc1cc(Nc2cc(N3CCN(C)CC3)nc(Sc3ccc(NC(=O)C4CC4)cc3)n2)n[nH]1 [tozasertib]
In short: as §1

[18] = compound: Cc1ccc(-n2nc(C(C)(C)C)cc2NC(=O)Nc2ccc(OCCN3CCOCC3)c3ccccc23)cc1 [doramapimod]
In short: as §1

[19] = compound: Cc1ccc(NC(=O)c2ccc(CN3CC[C@H](N(C)C)C3)c(C(F)(F)F)c2)cc1Nc1nccc(-c2cncnc2)n1 [bafetinib]
In short: as §1

[20] = compound: Cc1cccc(CC(=O)N2CCc3c2ccc(-c2cn(C)c4ncnc(N)c24)c3F)n1
In short: as §1

Measured: log2 fold change

DDT (UniProt P30046)
inactive: [1] 0 | [2] 0.037 | [3] 0.041 | [4] 0.061 | [5] 0.03 | [6] -0.017 | [7] -0.07 | [8] 0.042 | [9] 0.013 | [10] -0.006 | [11] -0.004 | [12] -0.061 | [13] 0.033 | [14] -0.045 | [15] 0.018 | [16] 0.103 | [17] 0.02 | [18] 0.013 | [19] -0.008 | [20] 0.036

D2HGDH (UniProt Q8N465)
inactive: [1] -0.033 | [2] 0.085 | [3] 0.017 | [4] 0.004 | [5] 0.017 | [6] -0.012 | [7] 0.051 | [8] 0 | [9] -0.026 | [10] -0.013 | [11] 0.04 | [12] -0.033 | [13] 0.012 | [14] -0.018 | [15] -0.01 | [16] 0.053 | [17] -0.04 | [18] 0.045 | [19] -0.02 | [20] 0.124

DCAF1 (UniProt Q9Y4B6)
inactive: [1] -0.006 | [2] -0.043 | [3] 0.008 | [4] -0.01 | [5] -0.017 | [6] 0.015 | [7] 0.022 | [8] 0.006 | [9] 0.043 | [10] 0.007 | [11] -0.035 | [12] -0.001 | [13] -0.017 | [14] -0.027 | [15] 0.003 | [16] -0.015 | [17] 0.004 | [18] 0.012 | [19] -0.035 | [20] 0.028

Two entries picked at random from the list so far, as already listed:
DDT (UniProt P30046)
inactive: [1] 0 | [2] 0.037 | [3] 0.041 | [4] 0.061 | [5] 0.03 | [6] -0.017 | [7] -0.07 | [8] 0.042 | [9] 0.013 | [10] -0.006 | [11] -0.004 | [12] -0.061 | [13] 0.033 | [14] -0.045 | [15] 0.018 | [16] 0.103 | [17] 0.02 | [18] 0.013 | [19] -0.008 | [20] 0.036

D2HGDH (UniProt Q8N465)
inactive: [1] -0.033 | [2] 0.085 | [3] 0.017 | [4] 0.004 | [5] 0.017 | [6] -0.012 | [7] 0.051 | [8] 0 | [9] -0.026 | [10] -0.013 | [11] 0.04 | [12] -0.033 | [13] 0.012 | [14] -0.018 | [15] -0.01 | [16] 0.053 | [17] -0.04 | [18] 0.045 | [19] -0.02 | [20] 0.124

Following part

DAG1 (UniProt Q14118)
inactive: [1] -0.077 | [2] 0.058 | [3] 0.065 | [4] 0.039 | [5] 0.036 | [6] -0.011 | [7] 0.017 | [8] -0.001 | [9] -0.005 | [10] -0.01 | [11] -0.004 | [12] 0.018 | [13] -0.021 | [14] -0.092 | [15] 0.021 | [16] 0.048 | [17] 0.052 | [18] 0.013 | [19] -0.032 | [20] 0.029

DCAF11 (UniProt Q8TEB1)
inactive: [1] -0.01 | [2] 0.018 | [3] 0.015 | [4] 0.015 | [5] 0.071 | [6] 0.02 | [7] 0.078 | [8] 0.028 | [9] 0.044 | [10] -0.028 | [11] -0.057 | [12] -0.056 | [13] -0.033 | [14] -0.022 | [15] 0.025 | [16] -0.045 | [17] -0.027 | [18] 0.061 | [19] 0.009 | [20] 0.057

DEGS1 (UniProt O15121)
inactive: [1] -0.023 | [2] 0.001 | [3] -0.03 | [4] 0.028 | [5] 0.067 | [6] 0.141 | [7] -0.153 | [8] -0.036 | [9] -0.034 | [10] 0.03 | [11] 0.014 | [12] 0 | [13] 0.022 | [14] 0.031 | [15] 0.017 | [16] -0.016 | [17] -0.08 | [18] -0.053 | [19] -0.184 | [20] -0.087

DECR2 (UniProt Q9NUI1)
inactive: [1] 0.015 | [2] -0.024 | [3] -0.093 | [4] 0.052 | [5] 0.028 | [6] 0.059 | [7] -0.112 | [8] -0.028 | [9] 0.173 | [10] -0.062 | [11] -0.191 | [12] 0.009 | [13] -0.049 | [14] 0.063 | [15] 0.042 | [16] -0.061 | [17] 0.064 | [18] -0.032 | [19] -0.039 | [20] 0.013

DENND10 (UniProt Q8TCE6)
inactive: [1] 0.045 | [2] 0.015 | [3] 0.004 | [4] 0.012 | [5] -0.06 | [6] -0.067 | [7] 0.04 | [8] 0.061 | [9] 0.008 | [10] 0.018 | [11] -0.016 | [12] -0.047 | [13] -0.075 | [14] -0.014 | [15] 0.051 | [16] -0.027 | [17] 0.027 | [18] 0.004 | [19] -0.003 | [20] -0.078
